Laboratory results from patent publication US20160200831A1.
No constants are given. Whether binding was seen depends on the method and setting. Some binding calls cover weakened binding; strength is not graded here.

What was measured:
human PAI-1 (human) [1] = target: human PAI-1 (human) (UniProt P05121); assay: preparative size exclusion chromatography of the Fab/PAI-1 mixture with SDS-PAGE inset; the sheet title reads 'His A44 Fab latent Pai1 SEC', the legend says human wt PAI-1
[2] = target: cynomolgus PAI-1 (cynomolgus monkey (Macaca fascicularis)); assay: X-ray crystal structure of the complex
[3] = target: human PAI-1 stabilized in active conformation (N150H, K154T, Q319L, M354I) (human) (UniProt P05121); assay: X-ray crystal structure of the complex
human PAI-1 (human) [4] = target: human PAI-1 (human) (UniProt P05121); assay: Biacore competition; analyte antibody on PAI-1 captured by immobilized A75 (competitor)
human PAI-1 (human) [5] = target: human PAI-1 (human) (UniProt P05121); assay: Biacore competition; analyte antibody on PAI-1 captured by immobilized E21 (competitor)
[6] = target: glycosylated human PAI-1 (active form) (human) (UniProt P05121); assay: ELISA, hybridoma supernatant
human PAI-1 (human) [7] = target: human PAI-1 (human) (UniProt P05121); assay: Biacore competition; analyte antibody on PAI-1 captured by immobilized C45 (competitor)
human PAI-1 (human) [8] = target: human PAI-1 (human) (UniProt P05121); assay: Biacore competition; analyte antibody on PAI-1 captured by immobilized A71 (competitor)
human PAI-1 (human) [9] = target: human PAI-1 (human) (UniProt P05121); assay: Biacore competition; analyte antibody on PAI-1 captured by immobilized C26 (competitor)
human PAI-1 (human) [10] = target: human PAI-1 (human) (UniProt P05121); assay: Biacore, hybridoma supernatant
human PAI-1 (human) [11] = target: human PAI-1 (human) (UniProt P05121); assay: Biacore competition; analyte antibody on PAI-1 captured by immobilized 33B8 (competitor)
human PAI-1 (human) [12] = target: human PAI-1 (human) (UniProt P05121); assay: Biacore competition; analyte antibody on PAI-1 captured by immobilized B109 (competitor)
human PAI-1 (human) [13] = target: human PAI-1 (human) (UniProt P05121); assay: Biacore competition; analyte antibody on PAI-1 captured by immobilized 33H1 (competitor)
[14] = target: glycosylated human PAI-1 (active form) (human) (UniProt P05121); assay: SPR, Biacore 2000, single-cycle kinetics, antibody captured on anti-Fc, glycosylated human PAI-1 injected five times
[15] = target: cynomolgus PAI-1 (cynomolgus monkey (Macaca fascicularis)); assay: HDX MS

Measured: binding

B1: Fab A44V11 (Fab, V domains shown)
VH: QMTLKESGPTLVKPTQTLSLTCSVSGDSMTNGYWNWIRQFPGKALEYMGYITYSGSTYYNPSLKGRITITRDTSKNQYYLTLSSVTTVDTATYYCARWHYGSPYYFDYWGQGTTLTVSS
VL: DIKMTQSPSSLSASVGDRVTITCKASQDINSYLSWLQQKPGKSPKTLIYRAQRSVEGVPSRFSGSGSGQDYSLTISSLQPEDLGIYYCLQYDEFPPTFGGGTKLEIK
binds: human PAI-1 (human) [1] | [2] | [3]

B2: E16 (antibody, mouse IgG1, V domains shown)
VH: EVKLVESGGGLVKPGGSLKLSCAASGFTFSNYGMSWVRQTPEKGLGWVASLRTGGNTYYSDSVKGRFTISRDNDRNILYLQMSSLTSEDTAVYYCARGLRHWGYFDVWGAGTTVTVSS
VL: DIVMTQSHKFMSTSVGDRVNITCKASQDVSTAVGWYQQEPGQSPKLLIYSASNRHTGVPDRFTGSGSGTDFTFTISSVQAEDLAVYYCQQHYSSPWTFGGGTKLEIK
not listed: human PAI-1 (human) [1] | [2] | [3] | [14] | [15]
binds: all other assays above

B3: APG (antibody, V domains shown)
VH: QVKLQESGPELVKPGASVKISCKASGYSFTDYNMNWVKQSKGKSLEWIGIIHPNSGTTTYNQKFKGKATLTVDQSSSTAYLQLNSLTSEDSAVYYCARSKLRFFDYWGQGTTVTVSS
VL: DIKLTQSPSSMYASLGERVTITCKASQDIYSYLSWFQQKPGKSPKTLIYRANRLIDGVPSRFSGSGSGQDYSLTISSLEYEHMGIYYCLQYDEFPFTFGSGTKLEIK
binds: [14]

B4: APGv2 (antibody, V domains shown)
VH: QVQLVQSGSELKKPGASVKVSCKASGYSFTDYNMNWVRQAPGQGLEWIGIIHPNSGTTTYNQKFKGRAVLSVDQSVSTAYLQISSLKAEDTAVYYCARSKLRFFDYWGQGTLVTVSS
VL: DIQLTQSPSSLSASVGDRVTITCKASQDIYSYLSWFQQKPGKAPKTLIYRANRLIDGVPSRFSGSGSGQDYTFTISSLQPEDIATYYCLQYDEFPFTFGQGTKLEIK
binds: [15]
